Here are results for three molecules from article PMC10267580.

In test [1] the target is T1, Rab6B^T27N, inactive mutant (mouse) (UniProt P61294).
T1 sequence: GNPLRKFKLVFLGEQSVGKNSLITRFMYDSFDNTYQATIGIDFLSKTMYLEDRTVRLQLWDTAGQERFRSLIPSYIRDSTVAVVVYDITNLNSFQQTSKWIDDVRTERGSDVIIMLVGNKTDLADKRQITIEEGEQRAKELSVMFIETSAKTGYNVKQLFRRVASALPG
Nature of the test: SEC; analytical gel filtration, Superdex 200 Increase 10/300 GL, 50 mM Tris pH 7.5, 100 mM NaCl, 2 mM MgCl2, 1 mM DTT; both purified.

Test [2] deals with Rab6B^Q72L, GTPase domain (residues 8-176), constitutively active mutant (mouse) (UniProt P61294). The experiment in a line: condition: typically 400 μM in the syringe into 40 μM in the cell; ITC; MicroCal PEAQ-ITC, 25 °C, 50 mM Tris pH 7.5, 100 mM NaCl, 2 mM MgCl2; typically one protein (400 μM) in the syringe into its binding protein (40 μM) in the cell; both purified.

Substitutions are numbered along the chain they refer to. In names and notes the source's numbering stands. These are yes or no findings as the source states them, for the method shown.

B1: ELKS1 C-terminal coiled-coil region (residues 761-927) (domain or fragment, UniProt Q811U3 761-927)
chain: QVKDQNKKVANLKHKEQVEKKKSAQMLEEARRREDSLSDSSQQLQVEELLMAMEKVKQELESMKAKLSSTQQSLAEKETHLTNLRAERRKHLEEVLEMKQEALLAAISEKDANIALLELSSSKKKTQEEVAALKREKDRLVQQLKQQTQNRMKLMADNYEDDHFRSS
B1: the binding result in test [1] is “no binding”.

B2: ELKS1_RBD D871R (domain or fragment, UniProt Q811U3 849-922)
chain: RKHLEEVLEMKQEALLAAISEKRANIALLELSSSKKKTQEEVAALKREKDRLVQQLKQQTQNRMKLMADNYEDD
In the case of B2, in test [2], the binding entry was “no binding”.

B3: ELKS1_RBD K905E (domain or fragment, UniProt Q811U3 849-922)
chain: B2 chain with R23D, K57E
In the case of B3, the binding result in test [2] is “no binding”.
